These are yes or no findings as the source states them, for the method shown. Some entries that bind do so weakly or less than the wild type. Blank lines part the entries; values can stand above or below the binder they belong to.
Assays:
[1] = target: T1, natively deglycosylated human twisted gastrulation (Tsg) (human) (UniProt Q9GZX9); experiment: SPR; Supplementary Fig. 1; by the methods all interactions other than those of Fig. 4 were run on a Biacore T200, 25 °C, 10 mM Hepes, 150 mM NaCl, 3 mM EDTA, 0.005% Tween-20, pH 7.4, 30 μl/min; who was immobilised was not shown; both purified
T1 sequence (chain, N-linked glycans removed with PNGase-F under non-denaturing conditions): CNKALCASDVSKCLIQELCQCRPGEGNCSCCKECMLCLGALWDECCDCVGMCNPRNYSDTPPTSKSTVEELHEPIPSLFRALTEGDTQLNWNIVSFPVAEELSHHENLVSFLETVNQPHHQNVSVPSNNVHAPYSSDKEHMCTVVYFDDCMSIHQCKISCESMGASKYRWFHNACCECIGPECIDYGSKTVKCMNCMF

[2] = target: T2, human twisted gastrulation (Tsg), native (glycosylated) (human) (UniProt Q9GZX9); experiment: SPR; ProteOn XPR36, GLC chip; Tsg immobilised by amine coupling (300 RU for ΔN-chordin and vWC2–3, 800 RU for vWC1-4CHRD and vWC1); chordin constructs injected at increasing concentrations; 25 °C, 10 mM HEPES, 150 mM NaCl, 3 mM EDTA, 0.05% Tween-20, pH 7.4, 50 μl/min; ΔN-chordin fitted to a 1:1 Langmuir model, vWC2–3 by equilibrium analysis; triplicate; both purified
T2 sequence (chain, N-linked glycans (three predicted N-linked glycosylation sites)): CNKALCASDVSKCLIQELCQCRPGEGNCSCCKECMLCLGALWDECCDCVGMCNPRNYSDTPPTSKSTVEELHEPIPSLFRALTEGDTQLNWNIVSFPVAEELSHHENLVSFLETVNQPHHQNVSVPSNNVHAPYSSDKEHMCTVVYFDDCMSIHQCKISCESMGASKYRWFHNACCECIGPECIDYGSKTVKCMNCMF

[3] = target: T2, human twisted gastrulation (Tsg), native (glycosylated) (human); experiment: AUC; velocity sedimentation, Tsg ~0.2 mg/ml, 25,000 rpm, 20 °C, monitored at 230 nm; both purified
[4] = target: T2, human twisted gastrulation (Tsg), native (glycosylated) (human); experiment: SEC-MALS; 0.5 ml at approximately 0.5 mg/ml on Superdex 200 10/300GL, 0.5 ml/min; 10 mM Tris–HCl, 150 mM NaCl, pH 7.4; native and deglycosylated Tsg; both purified
[5] = target: T2, human twisted gastrulation (Tsg), native (glycosylated) (human); experiment: SAXS; 1–6 mg/ml Tsg, 10 °C; radius of gyration compared with the hydrodynamic radius; both purified
[6] = target: T1, natively deglycosylated human twisted gastrulation (Tsg) (human); experiment: SEC-MALS; 0.5 ml at approximately 0.5 mg/ml on Superdex 200 10/300GL, 0.5 ml/min; 10 mM Tris–HCl, 150 mM NaCl, pH 7.4; native and deglycosylated Tsg; both purified

binding [1]: binds
B1: full-length human chordin (protein, UniProt Q9H2X0 27-955)
chain: AGPEPPVLPIRSEKEPLPVRGAAGCTFGGKVYALDETWHPDLGEPFGVMRCVLCACEAPQWGRRTRGPGRVSCKNIKPECPTPACGQPRQLPGHCCQTCPQERSSSERQPSGLSFEYPRDPEHRSYSDRGEPGAEERARGDGHTDFVALLTGPRSQAVARARVSLLRSSLRFSISYRRLDRPTRIRFSDSNGSVLFEHPAAPTQDGLVCGVWRAVPRLSLRLLRAEQLHVALVTLTHPSGEVWGPLIRHRALAAETFSAILTLEGPPQQGVGGITLLTLSDTEDSLHFLLLFRGLLEPRSGGLTQVPLRLQILHQGQLLRELQANVSAQEPGFAEVLPNLTVQEMDWLVLGELQMALEWAGRPGLRISGHIAARKSCDVLQSVLCGADALIPVQTGAAGSASLTLLGNGSLIYQVQVVGTSSEVVAMTLETKPQRRDQRTVLCHMAGLQPGGHTAVGICPGLGARGAHMLLQNELFLNVGTKDFPDGELRGHVAALPYCGHSARHDTLPVPLAGALVLPPVKSQAAGHAWLSLDTHCHLHYEVLLAGLGGSEQGTVTAHLLGPPGTPGPRRLLKGFYGSEAQGVVKDLEPELLRHLAKGMASLMITTKGSPRGELRGQVHIANQCEVGGLRLEAAGAEGVRALGAPDTASAAPPVVPGLPALAPAKPGGPGRPRDPNTCFFEGQQRPHGARWAPNYDPLCSLCTCQRRTVICDPVVCPPPSCPHPVQAPDQCCPVCPEKQDVRDLPGLPRSRDPGEGCYFDGDRSWRAAGTRWHPVVPPFGLIKCAVCTCKGGTGEVHCEKVQCPRLACAQPVRVNPTDCCKQCPVGSGAHPQLGDPMQADGPRGCRFAGQWFPESQSWHPSVPPFGEMSCITCRCGAGVPHCERDDCSLPLSCGSGKESRCCSRCTAHRRPAPETRTDPELEKEAEGS

binding [2]: binds weakly
B2: chordin vWC1 (residues 50–128) (domain or fragment, UniProt Q9H2X0 50-128)
chain: GCTFGGKVYALDETWHPDLGEPFGVMRCVLCACEAPQWGRRTRGPGRVSCKNIKPECPTPACGQPRQLPGHCCQTCPQE

binding [2]: no binding
B5: chordin vWC1-4CHRD (residues 27–650) (domain or fragment, UniProt Q9H2X0 27-650)
chain: AGPEPPVLPIRSEKEPLPVRGAAGCTFGGKVYALDETWHPDLGEPFGVMRCVLCACEAPQWGRRTRGPGRVSCKNIKPECPTPACGQPRQLPGHCCQTCPQERSSSERQPSGLSFEYPRDPEHRSYSDRGEPGAEERARGDGHTDFVALLTGPRSQAVARARVSLLRSSLRFSISYRRLDRPTRIRFSDSNGSVLFEHPAAPTQDGLVCGVWRAVPRLSLRLLRAEQLHVALVTLTHPSGEVWGPLIRHRALAAETFSAILTLEGPPQQGVGGITLLTLSDTEDSLHFLLLFRGLLEPRSGGLTQVPLRLQILHQGQLLRELQANVSAQEPGFAEVLPNLTVQEMDWLVLGELQMALEWAGRPGLRISGHIAARKSCDVLQSVLCGADALIPVQTGAAGSASLTLLGNGSLIYQVQVVGTSSEVVAMTLETKPQRRDQRTVLCHMAGLQPGGHTAVGICPGLGARGAHMLLQNELFLNVGTKDFPDGELRGHVAALPYCGHSARHDTLPVPLAGALVLPPVKSQAAGHAWLSLDTHCHLHYEVLLAGLGGSEQGTVTAHLLGPPGTPGPRRLLKGFYGSEAQGVVKDLEPELLRHLAKGMASLMITTKGSPRGELRGQVHIANQ

Continued, binder first:

B3: human twisted gastrulation (Tsg), native (glycosylated) (protein, UniProt Q9GZX9 26-223)
chain: CNKALCASDVSKCLIQELCQCRPGEGNCSCCKECMLCLGALWDECCDCVGMCNPRNYSDTPPTSKSTVEELHEPIPSLFRALTEGDTQLNWNIVSFPVAEELSHHENLVSFLETVNQPHHQNVSVPSNNVHAPYSSDKEHMCTVVYFDDCMSIHQCKISCESMGASKYRWFHNACCECIGPECIDYGSKTVKCMNCMF
modifications: N-linked glycans (three predicted N-linked glycosylation sites)
binding [3]: no binding (tested: ~0.2 mg/ml) | binding [4]: no binding (tested: approximately 0.5 mg/ml loaded) | binding [5]: no binding (tested: 6 mg/ml)

B4: natively deglycosylated human twisted gastrulation (Tsg) (protein, UniProt Q9GZX9 26-223)
chain: CNKALCASDVSKCLIQELCQCRPGEGNCSCCKECMLCLGALWDECCDCVGMCNPRNYSDTPPTSKSTVEELHEPIPSLFRALTEGDTQLNWNIVSFPVAEELSHHENLVSFLETVNQPHHQNVSVPSNNVHAPYSSDKEHMCTVVYFDDCMSIHQCKISCESMGASKYRWFHNACCECIGPECIDYGSKTVKCMNCMF
modifications: N-linked glycans removed with PNGase-F under non-denaturing conditions
binding [6]: no binding (tested: approximately 0.5 mg/ml loaded)

From article PMC5080453
